Screening data

Source: PubChem BioAssay AID1159506 (NCATS, 2015).

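Genome-wide siRNA knockdown in TC32 Ewing sarcoma cells, comparing luciferase light from an NR0B1-promoter reporter with a CMV-promoter reporter 48 hours after transfection.
Each siRNA was applied at 20 nM.
A z-score of the log NR0B1-over-CMV signal, less the median of siRNAs with the same seed; more negative means a stronger specific loss of the NR0B1 reporter.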

The strongest results of the screen are mostly left out here.
Sequences are the guide (antisense) strand, without overhang.

siRNA,target gene,seed-corrected z-score
UUCUUAAUAGCCUUGUCCU,RPS26P40,1.375
UUCUGAGUGCCGAAAUUCC,CHIT1,0.3061
UGCCUGCCCAAAAUUGGUC,LOC643923,-0.1012
UUAUCUGAGACUUCACUCC,XCL1,1.255
UAUACUCCGACUGACAAUG,RPA4,0.1302
UUUGUAGUUUGAUCCUUCC,AATF,0.01918
UUUCCAGGUAGCUUGAUCU,LY6G6D,-0.1788
UACCGUAUUGGAAACCAAC,EMP1,0.4368
UACUUGCCGUCGUAGACGC,TAS1R1,-0.9155
UCAAAGACCAUCUUCACUU,VIPR1,-0.521
UUCCUUACGUCUUGCCGCC,SEMA3B,0.2523
UCGACGACCAGAAUCAACC,ACADM,0.1717
AACUUAUCAAGAACUUGUG,ASAP1,-0.1436
AUUCAGAUAAAACCCAGUG,APOH,0.7031
UUGGGCAUGAUGGAAGAGG,OR13A1,-0.9002
UUUGUAUGAACUGCUCUCG,RGS9BP,0.1497
AUCUUUGUCAACUAGUGUG,C2orf61,0.0427
UUUGUCUUCACAGAGAAAU,FCGR3A,0.02386
AAAUGUAUUCGAACUGAAG,RFC5,0.2809
UGCGUUUCAUGGGCAAAGC,PTCH1,1.414
UUGCGUUUUGUAGACAUAA,CLRN1,0.7187
AGACUAUAGAGUACCAUGC,FAT4,-0.02467
UUCGGUACAAAAUGUGAUG,FGF12,1.707
UAUUUGUAUUAGUAUGUCC,SPOPL,0.184
AAAGCGAUCCUCGGUACCC,LAMA5,-1.402
UAUGUGACCUCCACGCUGG,CNPY4,-0.9025
UCAGUGGUACUUAUGGGCC,HBE1,0.1378
UAUGCGACUGGCUUCAGGG,LOC728327,0.5382
UUUUAGACUAUGUCUACAC,ZNF532,-0.5828
UAUUGUCUCUCGAUUGCUG,CEACAM8,0.869
UCAUAGUCACGAACAAUUC,PCYT1B,-0.4139
UAUCGAUCAUCAGAUUACG,CADM1,0.8161
UACGUCUCUAUGGAGGUAG,FAM214A,-0.5522
AAAUCCAUCACUAAUCAUG,APAF1,0.2917
UAAUAGAAAAUAACGAUGU,FOXD4L1,-0.005067
UCCUGGAUUGUGCUGUUGC,FUBP3,-0.7377
ACGGUGCUCAUAGUAGUCG,HCN2,-1.4
UUGUCCAUCGCGAACAUCC,MAP3K15,-0.2057
UACAGAUCCACGUCAUCCU,SPATA2,0.4603
AAACCAGAUAAUGAGGUCG,INPP5K,-0.3929
UUUGGUGUAUGUGAUUAAC,GPR22,0.6017
UUGAAAUCCUCAUAGCUCC,HSD3B7,-1.274
GACACUGUCUGGUCGAAGG,UTF1,-0.5733
UUGUGGACAACUAACAGUC,BLCAP,-0.8151
AUCAUAACUAAAUCCAGUC,AGGF1,-0.09892
UCUCUUAUAAGGGCACUGG,WFDC12,0.5279
ACAACUUCCAUGCUGCUGG,HSD3B7,0.03533
UUUGUUGAGAGGUCCGAGG,AAK1,0.005079
UCCAUCAACAGUCAGUUGC,ALG1L8P,-0.1236
UCAUUGCACAAAUCAGGGC,PPP1R16B,-0.8379
UCGAUAUCCGGUGUAGACC,PKD1L3,0.6359
UACGCUUUUUCCCUAACUC,ANK3,0.3238
UCCUUGGCACCGAUGAUGC,RPS21,1.829
UUCGCUUGUCCCUUUCUGC,MAP7D1,-0.3036
UGAAGUUCAAUUUAUUGAU,LOC728975,-0.2834
UUCGUCCCACUCUUUGUCC,ZNF830,0.3986
UAAGGAUGAGGAACAAUUG,ZNF555,1.2
UUUGAUGUUUGGGUUAUUG,ISCA1,-0.2467
UGACUGUAAAUUGCCCAUC,EPHA7,-1.065
UUUCCCUUACCCUUCCUUC,NFKBIL1,-0.3489
AGUUUUACAGCUUCGAUUC,ERVW-1,0.093
AUCUGGACACUCAAGAUUC,LINC01561,0.0892
UAAACAUCCAUCGCAGCUG,DEXI,-0.4581
UUUUCCGUAAGAUCCACAC,ASAP2,0.1658
UUCAUAACCAUGCGAGUUC,PLCB4,-1.435
UCUGAUACGCUAUAUAACG,TUBGCP5,0.4875
UCAGAGUAAAUCUCACAGC,ALAS1,0.7788
AAUGUUACUACUAUAACGG,C18orf63,-0.972
UGGAUUUUGAUUGAAGACC,ZNF610,0.3888
AAAGAUGUUAUCAUUGAUG,LOC727808,0.7069
UAACUUACGAAAGGACCUG,CXorf66,0.02147

The last 7 entries again:

| siRNA | target gene | seed-corrected z-score |
|---|---|---|
| `UUCAUAACCAUGCGAGUUC` | PLCB4 | -1.435 |
| `UCUGAUACGCUAUAUAACG` | TUBGCP5 | 0.4875 |
| `UCAGAGUAAAUCUCACAGC` | ALAS1 | 0.7788 |
| `AAUGUUACUACUAUAACGG` | C18orf63 | -0.972 |
| `UGGAUUUUGAUUGAAGACC` | ZNF610 | 0.3888 |
| `AAAGAUGUUAUCAUUGAUG` | LOC727808 | 0.7069 |
| `UAACUUACGAAAGGACCUG` | CXorf66 | 0.02147 |